The record followed here is doi:10.1101/158022.

Amino acid sequences for entries named in this document (tags omitted). Residues count along the entry.
UniProt P18065, 36-325: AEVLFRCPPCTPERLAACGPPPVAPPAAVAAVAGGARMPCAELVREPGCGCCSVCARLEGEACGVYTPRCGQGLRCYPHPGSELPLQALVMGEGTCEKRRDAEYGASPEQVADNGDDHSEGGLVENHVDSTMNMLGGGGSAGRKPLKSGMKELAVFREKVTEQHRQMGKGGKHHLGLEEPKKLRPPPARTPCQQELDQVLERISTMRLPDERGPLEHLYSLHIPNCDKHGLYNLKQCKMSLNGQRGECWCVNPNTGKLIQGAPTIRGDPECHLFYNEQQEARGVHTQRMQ

Results are given in words; binding and its absence hold for the method and conditions named. In cells and extracts the contact can be indirect. A yes stands for co-enrichment or nearness to the bait. Other partners may have been found.

In this assay the target is insulin growth factor binding protein 2 (human (endogenous in plasma)) (UniProt P18065). The assay is described as follows: affinity purification with mass spectrometry.

For “butyrylcholine esterase (from UniProt P06276 29-602) (enzyme)”, the binding entry is on record as “binds”.
